# PubChem BioAssay AID540276 (National Center for Advancing Translational Sciences (NCATS), 2011)
# Among all 300,000 compounds or so, about 5,400 (1.8%) were called active. The shares of active, inactive and inconclusive entries below differ from those in the screen. The call rests on the fitted dose curve; tested in HEK293 cells. A potency beside an inconclusive call is a rough fit, not a confirmed value.
# Test: qHTS for inhibitors of binding or entry into cells for Marburg Virus
# Details: Marburg virus pseudotyped entry inhibition, cell reporter; activity change, negative = inhibition: at 37.8 µM (top of the series) unless noted
# On the % scale 0 is the no-effect control and ±100 the full control effect; potency means the concentration at half of the fitted maximal effect.
Structure (SMILES),Potency,"activity change, negative = inhibition"
COc1cc2[nH]c(=S)nc(NCCCOC(C)C)c2cc1OC,"inconclusive: 6.51 µM [activator, single point]",–
CN(C)NC(=S)NC1CCS(=O)(=O)C1 (stereo not drawn),"inconclusive: 3.16 µM [activator, partial curve, poor fit]",–
CC(=O)NCCn1c(SCC(=O)NCCc2ccc(S(N)(=O)=O)cc2)nc2ccccc2c1=O,–,inactive: 3.68% [at 46.1 µM]
O=C(c1cccs1)N1CCCC(N2CCN(c3cccc(C(F)(F)F)c3)CC2)C1 (stereo not drawn),–,inactive: -19.2%
CC1(C)CC2CC(C)(CN2C(=O)c2cc(-c3ccc(O)cc3)on2)C1 (stereo not drawn),"inconclusive: 35.5 µM [inhibitor, single point]",–
Cc1noc(C)c1C(=O)Nc1ccc(-c2nnc3n2CCCCC3)cc1,"inconclusive: 0.447 µM [activator, single point]",–
CCOC(=O)c1cccc(NC(=O)c2cnn(-c3ccccc3)c2-n2cccc2)c1,"inconclusive: 35.5 µM [inhibitor, single point]",–
CNc1oc(-c2ccc(Cl)cc2)nc1P(=O)(c1ccccc1)c1ccccc1,–,inactive: -37.5%
CCOC(=O)c1cc(-c2ccc(Cl)cc2)nc2c1c(C)nn2CCC#N,"inconclusive: 35.5 µM [inhibitor, single point]",–
CCOc1ccc(C(C)=O)cc1Cn1nc(C(=O)O)c2ccccc2c1=O,"inconclusive: 3.55 µM [activator, full curve, poor fit]",–
COc1ccccc1NS(=O)(=O)c1ccc(C(=O)N2CCCCCC2)cc1,"inconclusive: 35.5 µM [inhibitor, single point]",–
CCC(C)NC(=O)c1[nH]c2cc(OC)ccc2c1Sc1ccc(C)cc1 (stereo not drawn),–,inactive: 1.37% [at 46.1 µM]
CC(=O)c1ccc(NC(=O)CSc2ccc(-c3sc(C)nc3C)nn2)cc1,–,inactive: -21.3% [at 46.1 µM]
C/C(=N\O)C(=O)NCC1CCNCC1,"inconclusive: 35.5 µM [activator, single point]",–
O=C(Nc1cccc(C(F)(F)F)c1)N(Cc1ccc(Cl)cc1)CC(O)C(F)(F)F (stereo not drawn),"inconclusive: 14.1 µM [inhibitor, single point]",–
CC(C)Cc1nnc(NC(=O)CSc2nc(O)c(Cc3ccccc3)c(=O)[nH]2)s1,–,inactive: 22.6% [at 46.1 µM]
CC(OC(=O)c1ccc(Cl)nc1)C(=O)NC1(C#N)CCCCC1 (stereo not drawn),–,inactive: 19.4%
COc1ccc(CNS(=O)(=O)CCNC(=O)c2cccc(OC)c2)cc1,–,inactive: 15.9%
COc1ccc(NC(=O)N2CCCC2C(=O)Nc2ccc(C)cc2)cc1 (stereo not drawn),"inconclusive: 13 µM [activator, single point]",–
CC(NC1=CC(=O)c2cccnc2C1=O)C(O)c1ccccc1 (stereo not drawn),active: 11.2 µM,–
C=CCOc1ccc(C2C3=C(CCCC3=O)N(CC(=O)O)C3=C2C(=O)CCC3)cc1OCC,"inconclusive: 25.1 µM [activator, single point]",–
NS(=O)(=O)c1ccc(CNC(=O)c2csc3c2CCCC3)cc1,"inconclusive: 11.2 µM [inhibitor, partial curve, poor fit]",–

Structure (SMILES),Potency,"activity change, negative = inhibition"
O=C(CNC(=O)c1ccc(-c2ccccc2)cc1)OCc1c(F)cccc1Cl,"inconclusive: 16.4 µM [inhibitor, single point]",–
CC1(C)Cc2cccc(OCC(=O)N3CCN(S(=O)(=O)c4ccc(F)cc4)CC3)c2O1,–,inactive: -17.4% [at 46.1 µM]
CCOC(=O)c1c(C)[nH]c(N=Nc2ccc(C)cc2C)c1C,"inconclusive: 0.562 µM [inhibitor, full curve, poor fit]",–
COc1ccc(-n2c(C)cc(C(=O)Cn3nnc4ccccc4c3=O)c2C)cc1,–,inactive: -11.5%
COc1cc2c(C(=O)N3CCN(c4ccccc4)CC3)c(C)oc2cc1Br,"inconclusive: 17.8 µM [inhibitor, single point]",–
CCOC(=O)N1CCN(C(=O)C2CCN(S(=O)(=O)N(CC)CC)CC2)CC1,"inconclusive: 13 µM [activator, partial curve, poor fit]",–
Cc1ccc(C2(C)NC(=O)N(CC(=O)N(c3ccccc3)C3CCS(=O)(=O)C3)C2=O)cc1 (stereo not drawn),"inconclusive: 0.562 µM [activator, full curve, poor fit]",–
CC(C)CN(C(=O)CCNC(=O)c1ccc(Cl)cc1)C1CCS(=O)(=O)C1 (stereo not drawn),"inconclusive: 35.5 µM [inhibitor, single point]",–
COc1nccnc1NS(=O)(=O)c1ccc(NC(=S)NC(=O)c2ccccc2F)cc1,"inconclusive: 5.62 µM [activator, full curve, poor fit]",–
O=C(Nc1ccc(Cl)cc1)C1CCN(S(=O)(=O)c2ccc(Br)s2)CC1,–,inactive: -15.5% [at 46.1 µM]
Cc1ccc(-c2nnc(SCC(=O)N/N=C/c3c(C)nn(-c4ccccc4)c3C)n2-c2ccc(C)cc2)cc1,"inconclusive: 15.8 µM [inhibitor, single point]",–
NCC1CC2c3ccccc3C1c1ccccc12 (stereo not drawn),"inconclusive: 8.91 µM [inhibitor, partial curve, poor fit]",–
COc1ccc(C(=O)N/N=C/c2ccc(OC)c(CN3CCc4cc(OC)c(OC)cc4C3C)c2)cc1 (stereo not drawn),"inconclusive: 35.5 µM [inhibitor, single point]",–
O=[N+]([O-])c1ccc(Nc2ccc(F)cc2)nc1,"inconclusive: 0.794 µM [activator, partial curve, poor fit]",–
CN(Cc1ccon1)C(=O)CC1C(=O)NCCN1Cc1ccc(Cl)c(F)c1 (stereo not drawn),–,inactive: 6.29%
Cc1cccc(NC(=O)c2c(NC(=O)c3ccco3)sc3c2CCC(C(C)(C)C)C3)c1 (stereo not drawn),–,inactive: 15.9% [at 46.1 µM]
CC12CCCc3c(O)cc(=O)n(c31)-c1ccccc12 (stereo not drawn),–,inactive: 35.6%
CC(C)C(NC(=O)CC12CC3CC(CC(C3)C1)C2)C(=O)O (stereo not drawn),"inconclusive: 0.708 µM [inhibitor, partial curve, poor fit]",–
O=C(Nc1cccc2[nH]ncc12)c1ccc(F)cc1,"inconclusive: 25.9 µM [activator, partial curve, poor fit]",–
CC1CN(C(=O)COC(=O)c2cc(Cl)ccc2Cl)CC(C)O1 (stereo not drawn),"inconclusive: 3.98 µM [activator, partial curve, poor fit]",–
CN(C)c1ccc(N=C/C=C2/N(C)c3ccccc3C2(C)C)cc1,"inconclusive: 29.1 µM [inhibitor, single point]",–

# Complete entries, looked up by structure:
# CC1CN(C(=O)COC(=O)c2cc(Cl)ccc2Cl)CC(C)O1 (stereo not drawn) in the list: Potency: inconclusive: 3.98 µM [activator, partial curve, poor fit]
# CC1(C)CC2CC(C)(CN2C(=O)c2cc(-c3ccc(O)cc3)on2)C1 (stereo not drawn) in the list: Potency: inconclusive: 35.5 µM [inhibitor, single point]
